Data as given in PMC6529219.
No constants are given. Whether binding was seen depends on the method and setting. In cells and extracts the contact can be indirect. A result given as binding can be weak or reduced; the word gives no strength.

Chains of the proteins cited; added tags and fusions are not shown. Lines headed by an entry give the natural chain unless they say otherwise; changes in a name come on top.
UniProt P42858: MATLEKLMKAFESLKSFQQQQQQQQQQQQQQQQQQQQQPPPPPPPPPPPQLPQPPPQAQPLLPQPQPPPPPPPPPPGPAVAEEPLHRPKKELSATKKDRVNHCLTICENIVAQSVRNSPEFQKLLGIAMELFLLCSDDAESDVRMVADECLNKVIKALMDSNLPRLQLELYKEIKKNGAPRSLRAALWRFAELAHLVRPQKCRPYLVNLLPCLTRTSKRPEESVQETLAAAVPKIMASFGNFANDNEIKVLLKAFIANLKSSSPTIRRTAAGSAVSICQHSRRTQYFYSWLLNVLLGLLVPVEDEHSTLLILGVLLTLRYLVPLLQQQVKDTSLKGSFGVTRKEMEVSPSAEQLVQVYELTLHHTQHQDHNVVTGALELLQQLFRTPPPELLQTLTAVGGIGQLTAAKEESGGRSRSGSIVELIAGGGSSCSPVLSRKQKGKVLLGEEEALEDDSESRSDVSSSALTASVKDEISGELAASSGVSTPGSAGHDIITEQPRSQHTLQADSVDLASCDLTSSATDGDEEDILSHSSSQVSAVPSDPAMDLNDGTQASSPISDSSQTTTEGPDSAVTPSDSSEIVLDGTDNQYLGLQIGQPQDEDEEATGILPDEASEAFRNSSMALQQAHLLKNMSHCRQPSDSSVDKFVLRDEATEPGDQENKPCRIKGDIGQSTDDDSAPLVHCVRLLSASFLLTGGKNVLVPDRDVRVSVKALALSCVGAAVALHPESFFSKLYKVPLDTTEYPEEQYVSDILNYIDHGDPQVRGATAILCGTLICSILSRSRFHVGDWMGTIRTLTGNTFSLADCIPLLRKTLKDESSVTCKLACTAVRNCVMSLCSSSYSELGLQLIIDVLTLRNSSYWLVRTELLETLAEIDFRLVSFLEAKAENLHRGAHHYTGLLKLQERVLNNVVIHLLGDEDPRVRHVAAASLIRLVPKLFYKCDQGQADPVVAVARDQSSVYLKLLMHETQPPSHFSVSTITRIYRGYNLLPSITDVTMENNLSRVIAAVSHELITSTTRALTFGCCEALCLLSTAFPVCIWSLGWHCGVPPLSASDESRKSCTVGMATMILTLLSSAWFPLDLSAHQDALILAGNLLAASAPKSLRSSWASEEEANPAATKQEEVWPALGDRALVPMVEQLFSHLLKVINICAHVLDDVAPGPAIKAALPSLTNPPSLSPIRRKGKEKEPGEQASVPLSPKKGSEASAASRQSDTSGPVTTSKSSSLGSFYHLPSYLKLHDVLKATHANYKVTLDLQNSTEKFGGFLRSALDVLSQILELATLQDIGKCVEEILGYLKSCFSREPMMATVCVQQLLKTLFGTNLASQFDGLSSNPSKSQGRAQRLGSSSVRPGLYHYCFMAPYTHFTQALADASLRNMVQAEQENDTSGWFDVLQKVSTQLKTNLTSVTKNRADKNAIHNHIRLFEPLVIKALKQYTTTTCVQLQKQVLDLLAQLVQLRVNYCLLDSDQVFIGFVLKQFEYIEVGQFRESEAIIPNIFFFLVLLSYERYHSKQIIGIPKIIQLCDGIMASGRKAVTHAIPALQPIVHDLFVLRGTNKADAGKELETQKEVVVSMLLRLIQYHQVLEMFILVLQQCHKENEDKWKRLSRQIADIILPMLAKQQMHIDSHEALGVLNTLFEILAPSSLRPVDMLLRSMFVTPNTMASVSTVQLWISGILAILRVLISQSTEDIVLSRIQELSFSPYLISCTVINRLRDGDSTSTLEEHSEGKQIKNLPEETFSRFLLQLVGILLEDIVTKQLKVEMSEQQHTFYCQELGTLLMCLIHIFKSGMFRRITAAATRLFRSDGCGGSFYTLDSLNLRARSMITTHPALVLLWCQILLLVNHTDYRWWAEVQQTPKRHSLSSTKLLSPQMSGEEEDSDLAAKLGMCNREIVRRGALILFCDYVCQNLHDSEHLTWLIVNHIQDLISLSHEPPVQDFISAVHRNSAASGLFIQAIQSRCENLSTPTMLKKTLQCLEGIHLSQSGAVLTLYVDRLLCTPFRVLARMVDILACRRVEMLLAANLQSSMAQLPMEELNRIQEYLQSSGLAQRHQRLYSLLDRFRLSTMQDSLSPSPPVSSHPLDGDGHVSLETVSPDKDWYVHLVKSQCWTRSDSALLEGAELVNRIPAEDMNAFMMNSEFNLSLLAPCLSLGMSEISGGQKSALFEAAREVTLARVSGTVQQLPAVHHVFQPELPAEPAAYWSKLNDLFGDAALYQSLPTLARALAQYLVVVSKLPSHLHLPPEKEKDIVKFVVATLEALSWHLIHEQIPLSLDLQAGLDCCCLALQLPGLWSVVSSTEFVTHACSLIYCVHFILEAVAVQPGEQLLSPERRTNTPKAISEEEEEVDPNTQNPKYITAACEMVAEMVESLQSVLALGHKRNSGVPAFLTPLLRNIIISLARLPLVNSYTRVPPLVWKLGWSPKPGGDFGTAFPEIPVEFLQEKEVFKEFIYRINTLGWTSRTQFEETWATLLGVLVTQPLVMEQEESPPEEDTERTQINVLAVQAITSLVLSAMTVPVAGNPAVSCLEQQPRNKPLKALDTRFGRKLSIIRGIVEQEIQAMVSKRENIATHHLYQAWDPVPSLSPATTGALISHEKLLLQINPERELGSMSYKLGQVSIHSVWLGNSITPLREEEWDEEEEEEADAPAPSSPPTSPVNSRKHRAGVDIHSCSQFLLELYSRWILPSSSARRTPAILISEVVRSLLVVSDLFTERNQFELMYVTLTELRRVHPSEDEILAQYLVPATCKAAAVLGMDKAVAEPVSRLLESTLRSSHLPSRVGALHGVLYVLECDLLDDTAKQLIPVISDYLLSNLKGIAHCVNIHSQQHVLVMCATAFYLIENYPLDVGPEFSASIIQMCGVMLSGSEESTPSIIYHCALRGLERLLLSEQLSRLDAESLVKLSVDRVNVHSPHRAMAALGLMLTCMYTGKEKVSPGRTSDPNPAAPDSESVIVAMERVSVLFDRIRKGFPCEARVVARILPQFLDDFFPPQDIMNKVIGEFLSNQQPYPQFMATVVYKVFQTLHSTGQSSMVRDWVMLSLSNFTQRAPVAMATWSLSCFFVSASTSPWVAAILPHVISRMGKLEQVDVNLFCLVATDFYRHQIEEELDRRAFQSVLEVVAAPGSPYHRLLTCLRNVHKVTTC
UniProt P43138: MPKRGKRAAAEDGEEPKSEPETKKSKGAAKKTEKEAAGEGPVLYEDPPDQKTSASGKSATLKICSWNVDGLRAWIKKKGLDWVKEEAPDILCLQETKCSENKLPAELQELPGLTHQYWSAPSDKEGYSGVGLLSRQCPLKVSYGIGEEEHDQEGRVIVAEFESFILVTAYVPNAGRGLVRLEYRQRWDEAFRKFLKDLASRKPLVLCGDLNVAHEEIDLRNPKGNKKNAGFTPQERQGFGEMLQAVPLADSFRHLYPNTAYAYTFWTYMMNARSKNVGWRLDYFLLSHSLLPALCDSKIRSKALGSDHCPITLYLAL
UniProt O35815: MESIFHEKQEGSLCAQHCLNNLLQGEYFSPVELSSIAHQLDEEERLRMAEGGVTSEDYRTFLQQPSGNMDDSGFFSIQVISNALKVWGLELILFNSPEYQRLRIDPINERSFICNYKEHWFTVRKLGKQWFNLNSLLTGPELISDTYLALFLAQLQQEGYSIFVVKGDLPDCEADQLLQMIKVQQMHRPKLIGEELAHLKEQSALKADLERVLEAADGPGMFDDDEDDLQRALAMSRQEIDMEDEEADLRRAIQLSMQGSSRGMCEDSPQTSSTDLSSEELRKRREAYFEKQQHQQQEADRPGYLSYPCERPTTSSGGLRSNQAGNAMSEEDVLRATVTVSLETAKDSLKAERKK

How the values were obtained:
[1] = target: Myc-tagged full-length mutant HTT (FL-mHTT-Q148) (UniProt P42858); experiment: co-IP; Myc-tagged full-length HTT or N-terminal HTT fragment immunoprecipitated with anti-Myc antibody from nuclear extract of PC12 cells; western blot for endogenous proteins
[2] = target: Myc-tagged full-length mutant HTT (FL-mHTT-Q148) (UniProt P42858); experiment: co-IP; FLAG-tagged PNKP or its domains transfected into PC12 cells expressing Myc-tagged full-length HTT (Q23 or Q148); IP with anti-Myc antibody from nuclear extract, blot with anti-FLAG

Row | Substance | binding [1] | binding [2]
1 | APE1, endogenous in PC12 cells (from UniProt P43138 1-317) (enzyme) | no binding | –
2 | ATXN3, endogenous in PC12 cells (from UniProt O35815 1-355) (enzyme) | binds | –
3 | CBP, endogenous in PC12 cells (from UniProt Q6JHU9 1-2442) (enzyme) | binds | –
4 | FLAG-tagged PNKP PHOS + KIN domains (C-terminal catalytic domain) (from UniProt Q96T60 131-521) (domain or fragment) | – | binds
5 | FLAG-tagged full-length PNKP (FL-PNKP) (from UniProt Q96T60 1-521) (enzyme) | – | binds
